# Results are given in words; binding and its absence hold for the method and conditions named. In cells and extracts the contact can be indirect. Binding can be weak; no strength is given. Tags and fused reporters may be left off the sequences shown.
# B1: histidine-tagged phage protein Ys18 (protein)
# chain: MTRPWTEAEINELIELVNAGRKRREIAKILGRTPKSIESKLRDIRKKSGEGNEKVLANNKINENNNSQKNIEKTNSEKVDAIVLYRKFLRKFLQKDSLPEREFDSLANAVEEYYIKTKNLSGAILLLETIMESGKY
# Target: primary sigma factor from T. thermophilus (σ^A) (Thermus thermophilus)
# Test: Ni-NTA agarose pull-down, SDS-PAGE with Coomassie stain
binder,measurement,value
B1,binding,binds
